The list shows a part of the results.
Tests used:
Assay in all cases: log2 fold change, soluble protein after heating vs DMSO (PISA); higher = thermal stabilisation; K562 cells, 10 uM, 30 min; active = over 0.2 and 3.5 SD of the protein, either way, in both replicates (recomputed)
[1] = compound: NC(=O)Nc1cc(-c2cccc(F)c2)sc1C(=O)N[C@H]1CCCNC1
Summary of the method: (§1)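 K562 cells (2×10^6 cells/mL) were treated with 10 μM compound for 30 min, and aliquots were heated for 3 min over 48°C-58°C. Pooled aliquots were extracted in PBS with 0.5% NP-40 at 4°C, and the supernatant after 21,000xg for 90 min was measured by TMTpro 16plex LC-MS/MS with channel sums equalised. Reported thermal stability, relative to control samples and from duplicates, is a log2 fold change.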

The chains behind the UniProt entries cited, without tags or fusion partners. Where a name states a change or a piece, a line headed by the entry shows the natural chain unless it says otherwise.
UniProt Q06055: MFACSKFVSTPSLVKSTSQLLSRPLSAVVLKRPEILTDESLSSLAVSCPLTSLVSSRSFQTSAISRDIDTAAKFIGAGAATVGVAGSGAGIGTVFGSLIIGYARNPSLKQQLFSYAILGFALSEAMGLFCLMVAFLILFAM
UniProt P15336: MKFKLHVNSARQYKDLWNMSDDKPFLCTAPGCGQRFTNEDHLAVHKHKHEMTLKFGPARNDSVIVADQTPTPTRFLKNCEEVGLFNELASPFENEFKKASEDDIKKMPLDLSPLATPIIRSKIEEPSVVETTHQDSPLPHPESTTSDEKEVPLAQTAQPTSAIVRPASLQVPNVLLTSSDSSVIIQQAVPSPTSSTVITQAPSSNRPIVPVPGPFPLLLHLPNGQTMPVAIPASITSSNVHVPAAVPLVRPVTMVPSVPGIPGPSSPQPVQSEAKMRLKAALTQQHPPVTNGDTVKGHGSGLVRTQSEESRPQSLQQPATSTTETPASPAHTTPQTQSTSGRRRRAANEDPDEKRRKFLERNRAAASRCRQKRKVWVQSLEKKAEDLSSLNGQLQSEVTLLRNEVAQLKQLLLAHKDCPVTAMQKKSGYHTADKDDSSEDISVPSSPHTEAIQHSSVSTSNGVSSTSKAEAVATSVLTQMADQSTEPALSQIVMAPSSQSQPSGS
UniProt P54707, whole entry, looked up: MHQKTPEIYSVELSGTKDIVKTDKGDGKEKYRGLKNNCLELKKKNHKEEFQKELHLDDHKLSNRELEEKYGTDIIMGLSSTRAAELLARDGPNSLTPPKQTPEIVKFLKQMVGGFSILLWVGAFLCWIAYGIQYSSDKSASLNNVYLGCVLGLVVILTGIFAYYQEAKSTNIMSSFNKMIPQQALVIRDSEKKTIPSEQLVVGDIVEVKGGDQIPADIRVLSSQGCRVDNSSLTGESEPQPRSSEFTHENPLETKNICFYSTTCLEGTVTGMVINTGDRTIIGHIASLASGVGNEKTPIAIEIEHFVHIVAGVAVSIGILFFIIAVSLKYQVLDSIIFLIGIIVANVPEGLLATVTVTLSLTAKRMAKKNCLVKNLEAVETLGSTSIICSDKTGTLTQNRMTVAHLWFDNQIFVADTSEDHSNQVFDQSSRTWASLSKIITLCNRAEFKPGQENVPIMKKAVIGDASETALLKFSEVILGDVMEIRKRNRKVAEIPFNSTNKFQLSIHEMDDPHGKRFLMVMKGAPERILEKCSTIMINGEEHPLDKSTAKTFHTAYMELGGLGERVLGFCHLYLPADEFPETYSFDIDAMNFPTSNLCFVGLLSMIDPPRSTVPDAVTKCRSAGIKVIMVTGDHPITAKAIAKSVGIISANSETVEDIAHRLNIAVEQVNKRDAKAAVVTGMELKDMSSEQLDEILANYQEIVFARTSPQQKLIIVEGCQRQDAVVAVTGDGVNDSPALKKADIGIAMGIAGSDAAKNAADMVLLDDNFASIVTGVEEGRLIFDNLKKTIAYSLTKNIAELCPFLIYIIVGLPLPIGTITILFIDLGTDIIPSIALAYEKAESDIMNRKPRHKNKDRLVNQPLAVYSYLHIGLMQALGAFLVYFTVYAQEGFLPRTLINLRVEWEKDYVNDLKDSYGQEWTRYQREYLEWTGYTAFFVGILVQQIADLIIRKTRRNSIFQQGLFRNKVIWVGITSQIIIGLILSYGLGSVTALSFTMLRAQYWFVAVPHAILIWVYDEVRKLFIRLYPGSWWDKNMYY
UniProt Q8NHH9: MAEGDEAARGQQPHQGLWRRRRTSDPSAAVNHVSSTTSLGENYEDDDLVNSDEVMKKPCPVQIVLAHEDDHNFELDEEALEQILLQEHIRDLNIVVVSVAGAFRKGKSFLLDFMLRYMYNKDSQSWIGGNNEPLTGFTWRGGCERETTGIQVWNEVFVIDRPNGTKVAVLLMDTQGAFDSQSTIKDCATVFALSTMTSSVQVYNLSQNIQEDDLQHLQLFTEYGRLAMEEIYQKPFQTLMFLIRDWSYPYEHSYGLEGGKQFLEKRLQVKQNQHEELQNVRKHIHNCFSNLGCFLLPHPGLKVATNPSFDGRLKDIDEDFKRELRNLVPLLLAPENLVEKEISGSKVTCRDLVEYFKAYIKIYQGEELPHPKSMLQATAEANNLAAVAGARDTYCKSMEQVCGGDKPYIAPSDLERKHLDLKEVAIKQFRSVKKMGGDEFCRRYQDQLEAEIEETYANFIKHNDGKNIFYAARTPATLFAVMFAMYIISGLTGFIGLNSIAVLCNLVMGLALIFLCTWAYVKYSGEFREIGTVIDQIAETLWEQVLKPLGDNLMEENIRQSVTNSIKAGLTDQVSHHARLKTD
UniProt Q2TAZ0: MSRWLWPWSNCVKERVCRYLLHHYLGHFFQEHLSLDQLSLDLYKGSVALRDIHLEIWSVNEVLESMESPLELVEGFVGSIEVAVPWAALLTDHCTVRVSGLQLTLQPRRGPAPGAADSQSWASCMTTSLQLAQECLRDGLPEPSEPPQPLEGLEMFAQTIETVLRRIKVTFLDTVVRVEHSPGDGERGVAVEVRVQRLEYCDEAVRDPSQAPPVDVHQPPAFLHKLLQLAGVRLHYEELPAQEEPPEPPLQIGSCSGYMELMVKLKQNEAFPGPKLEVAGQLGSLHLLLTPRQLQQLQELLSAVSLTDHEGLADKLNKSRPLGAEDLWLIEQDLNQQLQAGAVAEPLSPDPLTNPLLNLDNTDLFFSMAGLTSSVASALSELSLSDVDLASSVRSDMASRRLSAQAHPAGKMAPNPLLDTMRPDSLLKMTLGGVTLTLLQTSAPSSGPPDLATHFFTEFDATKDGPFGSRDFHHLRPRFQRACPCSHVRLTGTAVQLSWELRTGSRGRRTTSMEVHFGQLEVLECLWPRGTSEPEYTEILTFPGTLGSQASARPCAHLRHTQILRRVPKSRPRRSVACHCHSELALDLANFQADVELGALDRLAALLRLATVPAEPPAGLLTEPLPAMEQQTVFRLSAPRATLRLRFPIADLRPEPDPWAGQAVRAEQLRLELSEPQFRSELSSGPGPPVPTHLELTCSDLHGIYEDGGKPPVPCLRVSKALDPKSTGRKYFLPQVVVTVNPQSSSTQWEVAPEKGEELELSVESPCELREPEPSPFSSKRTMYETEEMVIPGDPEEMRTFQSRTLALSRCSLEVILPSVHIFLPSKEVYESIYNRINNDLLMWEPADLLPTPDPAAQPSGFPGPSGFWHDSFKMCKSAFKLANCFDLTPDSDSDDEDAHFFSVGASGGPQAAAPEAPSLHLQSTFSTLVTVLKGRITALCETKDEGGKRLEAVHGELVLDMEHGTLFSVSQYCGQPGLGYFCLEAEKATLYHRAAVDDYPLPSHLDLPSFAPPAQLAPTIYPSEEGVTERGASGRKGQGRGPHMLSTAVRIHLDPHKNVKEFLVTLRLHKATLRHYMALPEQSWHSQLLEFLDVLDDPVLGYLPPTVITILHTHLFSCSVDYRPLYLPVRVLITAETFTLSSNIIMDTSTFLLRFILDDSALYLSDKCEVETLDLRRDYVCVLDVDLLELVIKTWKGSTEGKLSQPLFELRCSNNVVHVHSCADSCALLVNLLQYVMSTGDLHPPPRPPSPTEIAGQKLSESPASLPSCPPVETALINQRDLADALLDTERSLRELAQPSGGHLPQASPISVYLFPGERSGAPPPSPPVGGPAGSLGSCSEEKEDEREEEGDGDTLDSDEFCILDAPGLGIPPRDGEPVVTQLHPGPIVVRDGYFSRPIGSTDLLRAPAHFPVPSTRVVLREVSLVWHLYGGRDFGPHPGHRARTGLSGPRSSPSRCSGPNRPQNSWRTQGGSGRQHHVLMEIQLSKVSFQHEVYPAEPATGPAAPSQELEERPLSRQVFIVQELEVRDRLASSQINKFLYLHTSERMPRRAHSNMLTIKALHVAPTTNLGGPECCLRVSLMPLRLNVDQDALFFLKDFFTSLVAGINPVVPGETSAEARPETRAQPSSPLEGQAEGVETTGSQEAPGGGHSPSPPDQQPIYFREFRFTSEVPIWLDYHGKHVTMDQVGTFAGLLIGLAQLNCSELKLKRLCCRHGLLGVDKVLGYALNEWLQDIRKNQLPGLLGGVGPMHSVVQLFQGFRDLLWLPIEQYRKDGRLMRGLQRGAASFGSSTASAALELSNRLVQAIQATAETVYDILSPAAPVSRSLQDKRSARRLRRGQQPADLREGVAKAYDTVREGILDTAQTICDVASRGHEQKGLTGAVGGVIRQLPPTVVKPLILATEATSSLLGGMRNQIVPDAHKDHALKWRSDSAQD
UniProt O95260: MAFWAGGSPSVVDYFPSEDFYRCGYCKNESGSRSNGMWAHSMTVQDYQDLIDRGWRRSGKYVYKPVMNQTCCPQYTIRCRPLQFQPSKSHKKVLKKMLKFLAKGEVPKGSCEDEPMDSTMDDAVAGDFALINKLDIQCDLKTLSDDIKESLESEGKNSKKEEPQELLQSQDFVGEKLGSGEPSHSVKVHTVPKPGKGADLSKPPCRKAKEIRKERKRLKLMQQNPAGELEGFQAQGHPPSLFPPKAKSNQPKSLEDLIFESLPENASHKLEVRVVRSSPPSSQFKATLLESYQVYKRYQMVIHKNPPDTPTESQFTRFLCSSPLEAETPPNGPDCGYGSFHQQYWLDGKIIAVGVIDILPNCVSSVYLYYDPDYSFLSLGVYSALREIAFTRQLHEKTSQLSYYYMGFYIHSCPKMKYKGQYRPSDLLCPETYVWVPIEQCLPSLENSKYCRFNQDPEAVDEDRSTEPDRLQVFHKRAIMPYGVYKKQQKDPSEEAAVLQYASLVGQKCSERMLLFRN
UniProt P56134: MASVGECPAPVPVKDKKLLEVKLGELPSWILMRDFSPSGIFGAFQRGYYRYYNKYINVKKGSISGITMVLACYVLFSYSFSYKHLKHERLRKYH
UniProt P38606, whole entry, looked up: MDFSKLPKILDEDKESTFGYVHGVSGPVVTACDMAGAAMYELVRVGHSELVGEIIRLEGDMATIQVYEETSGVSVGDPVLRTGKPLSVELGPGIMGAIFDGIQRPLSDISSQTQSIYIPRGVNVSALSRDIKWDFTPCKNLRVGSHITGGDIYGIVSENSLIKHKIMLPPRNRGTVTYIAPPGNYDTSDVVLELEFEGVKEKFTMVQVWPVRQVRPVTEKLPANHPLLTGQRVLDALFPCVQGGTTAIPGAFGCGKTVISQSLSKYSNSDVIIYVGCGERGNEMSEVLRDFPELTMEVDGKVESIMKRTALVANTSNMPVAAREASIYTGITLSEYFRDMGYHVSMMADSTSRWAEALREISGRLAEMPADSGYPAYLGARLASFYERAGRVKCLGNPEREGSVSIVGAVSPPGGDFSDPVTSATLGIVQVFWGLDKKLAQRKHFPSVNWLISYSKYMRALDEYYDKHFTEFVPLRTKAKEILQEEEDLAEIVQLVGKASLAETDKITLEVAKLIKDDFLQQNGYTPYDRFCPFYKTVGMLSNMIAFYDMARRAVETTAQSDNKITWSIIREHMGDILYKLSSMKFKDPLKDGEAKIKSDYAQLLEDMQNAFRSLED
UniProt P56385: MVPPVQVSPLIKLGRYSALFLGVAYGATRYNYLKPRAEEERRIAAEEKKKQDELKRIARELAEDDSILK
UniProt Q7L266: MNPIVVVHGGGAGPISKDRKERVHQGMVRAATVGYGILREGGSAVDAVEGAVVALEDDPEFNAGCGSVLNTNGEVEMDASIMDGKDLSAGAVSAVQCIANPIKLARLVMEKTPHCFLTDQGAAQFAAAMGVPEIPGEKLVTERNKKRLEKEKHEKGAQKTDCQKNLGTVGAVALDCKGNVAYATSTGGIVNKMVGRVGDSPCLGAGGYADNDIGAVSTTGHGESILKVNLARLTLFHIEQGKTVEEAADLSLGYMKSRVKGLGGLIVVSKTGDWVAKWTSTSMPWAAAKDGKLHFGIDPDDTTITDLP
UniProt P25705: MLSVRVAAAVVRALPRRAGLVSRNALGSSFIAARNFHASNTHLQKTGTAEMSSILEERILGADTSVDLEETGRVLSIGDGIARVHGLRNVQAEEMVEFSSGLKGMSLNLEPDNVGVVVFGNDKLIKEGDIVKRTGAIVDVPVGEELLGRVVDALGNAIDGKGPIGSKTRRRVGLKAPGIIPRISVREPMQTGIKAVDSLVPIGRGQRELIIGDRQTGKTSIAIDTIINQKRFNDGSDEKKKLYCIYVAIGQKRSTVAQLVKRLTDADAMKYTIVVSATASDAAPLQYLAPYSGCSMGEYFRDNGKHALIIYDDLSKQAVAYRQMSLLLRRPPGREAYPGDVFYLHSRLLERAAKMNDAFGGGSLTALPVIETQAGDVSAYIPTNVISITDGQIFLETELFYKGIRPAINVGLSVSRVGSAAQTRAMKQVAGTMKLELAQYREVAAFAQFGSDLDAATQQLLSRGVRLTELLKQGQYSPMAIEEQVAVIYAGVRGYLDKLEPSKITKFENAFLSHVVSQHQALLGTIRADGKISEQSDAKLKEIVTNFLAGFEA
UniProt Q96BM9: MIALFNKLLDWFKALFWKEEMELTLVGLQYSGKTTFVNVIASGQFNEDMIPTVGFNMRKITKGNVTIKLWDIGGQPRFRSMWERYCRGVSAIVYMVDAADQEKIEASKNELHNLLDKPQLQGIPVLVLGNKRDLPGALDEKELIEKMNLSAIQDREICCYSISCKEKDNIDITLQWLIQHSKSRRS

[2] = compound: NC(=O)c1cnc(N[C@@H]2CCCC[C@@H]2N)nc1Nc1cccc(-n2nccn2)c1
Summary of the method: as §1

[3] = compound: NC1(c2ccc(-c3nc4ccn5c(=O)[nH]nc5c4cc3-c3ccccc3)cc2)CCC1
Summary of the method: as §1

[4] = compound: NCC(=O)Nc1ccc(-n2nc(C(F)(F)F)cc2-c2ccc3c(ccc4ccccc43)c2)cc1
Summary of the method: as §1

entinostat = compound: Nc1ccccc1NC(=O)c1ccc(CNC(=O)OCc2cccnc2)cc1 [entinostat]
Summary of the method: as §1

vorinostat = compound: O=C(CCCCCCC(=O)Nc1ccccc1)NO [vorinostat]
Summary of the method: as §1

citarinostat = compound: O=C(CCCCCCNC(=O)c1cnc(N(c2ccccc2)c2ccccc2Cl)nc1)NO [citarinostat]
Summary of the method: as §1

silmitasertib = compound: O=C(O)c1ccc2c(c1)nc(Nc1cccc(Cl)c1)c1ccncc12 [silmitasertib]
Summary of the method: as §1

[5] = compound: O=C1NC(=O)C(c2cnc3ccccn23)=C1c1cn2c3c(cc(F)cc13)CN(C(=O)N1CCCCC1)CC2
Summary of the method: as §1

[6] = compound: c1cc(OCCN2CCCCC2)cc(-c2n[nH]c3ccc(-c4nnc[nH]4)cc23)c1
Summary of the method: as §1

Measured: log2 fold change

ATP5MC2 isoform 2 (UniProt Q06055)
inactive: [1] 0.049 | [2] -0.016 | [3] -0.029 | [4] 0.058 | entinostat -0.137 | vorinostat 0.051 | citarinostat 0.021 | silmitasertib -0.021 | [5] -0.069 | [6] -0.109

ATF2 (UniProt P15336)
inactive: [1] -0.092 | [2] 0.044 | [3] -0.13 | [4] -0.085 | entinostat -0.005 | vorinostat -0.089 | citarinostat -0.04 | silmitasertib 0.215 | [5] 0.073 | [6] -0.303

ATP12A isoform 2 (UniProt P54707)
inactive: [1] -0.115 | [2] 0.049 | [3] 0.075 | [4] 0.003 | entinostat -0.072 | vorinostat -0.035 | citarinostat -0.033 | silmitasertib -0.033 | [5] -0.032 | [6] -0.037

Copied from the entries so far (2 entries):
ATF2 (UniProt P15336)
inactive: [1] -0.092 | [2] 0.044 | [3] -0.13 | [4] -0.085 | entinostat -0.005 | vorinostat -0.089 | citarinostat -0.04 | silmitasertib 0.215 | [5] 0.073 | [6] -0.303

ATP12A isoform 2 (UniProt P54707)
inactive: [1] -0.115 | [2] 0.049 | [3] 0.075 | [4] 0.003 | entinostat -0.072 | vorinostat -0.035 | citarinostat -0.033 | silmitasertib -0.033 | [5] -0.032 | [6] -0.037

(list continues)

ATP5PB (UniProt P24539)
inactive: [1] -0.005 | [2] 0.005 | [3] 0.015 | [4] -0.017 | entinostat 0.05 | vorinostat -0.02 | citarinostat -0.001 | silmitasertib 0 | [5] 0 | [6] -0.027

ARL3 (UniProt P36405)
inactive: [1] 0.02 | [2] -0.005 | [3] -0.051 | [4] 0.006 | entinostat -0.024 | vorinostat -0.013 | citarinostat 0.05 | silmitasertib 0 | [5] -0.001 | [6] -0.022

ATL2 (UniProt Q8NHH9)
inactive: [1] -0.021 | [2] -0.03 | [3] -0.165 | [4] -0.094 | entinostat -0.025 | vorinostat 0.017 | citarinostat -0.023 | silmitasertib -0.004 | [5] -0.025 | [6] -0.058

ATG2A isoform 3 (UniProt Q2TAZ0)
inactive: [1] -0.056 | [2] -0.028 | [3] -0.081 | [4] -0.016 | entinostat -0.021 | vorinostat 0.02 | citarinostat 0.016 | silmitasertib 0.011 | [5] 0 | [6] 0.029

ATE1 isoform 2 (UniProt O95260)
inactive: [1] -0.037 | [2] -0.088 | [3] -0.014 | [4] 0.018 | entinostat 0.017 | vorinostat 0.071 | citarinostat 0.093 | silmitasertib 0.017 | [5] -0.024 | [6] 0.029

ATN1 (UniProt P54259)
inactive: [1] 0.047 | [2] -0.056 | [3] -0.032 | [4] 0.015 | entinostat -0.054 | vorinostat 0.014 | citarinostat 0.032 | silmitasertib 0.021 | [5] 0.008 | [6] 0.023

ATP5MF (UniProt P56134)
inactive: [1] -0.02 | [2] 0.063 | [3] 0.033 | [4] 0.002 | entinostat -0.027 | vorinostat -0.042 | citarinostat 0.028 | silmitasertib 0.027 | [5] -0.015 | [6] -0.068

ATP6V1A (UniProt P38606)
inactive: [1] -0.021 | [2] -0.071 | [3] -0.106 | [4] -0.046 | entinostat -0.006 | vorinostat -0.023 | citarinostat 0.01 | silmitasertib -0.001 | [5] -0.039 | [6] -0.047

ATP5MPL (UniProt P56378)
inactive: [1] -0.015 | [2] -0.113 | [3] 0.039 | [4] -0.016 | entinostat -0.004 | vorinostat -0.105 | citarinostat 0.026 | silmitasertib -0.001 | [5] -0.016 | [6] -0.025

ARL6IP6 (UniProt Q8N6S5)
inactive: [1] -0.085 | [2] -0.125 | [3] -0.073 | [4] -0.015 | entinostat -0.021 | vorinostat -0.007 | citarinostat -0.058 | silmitasertib -0.014 | [5] 0.011 | [6] -0.059

ATP1A4 (UniProt Q13733)
inactive: [1] 0.023 | [2] 0.069 | [3] 0.059 | [4] -0.03 | entinostat -0.001 | vorinostat -0.002 | citarinostat 0.121 | silmitasertib 0.007 | [5] 0.176 | [6] -0.088

ATP13A3 (UniProt Q9H7F0)
inactive: [1] -0.072 | [2] 0.027 | [3] -0.082 | [4] 0.039 | entinostat 0.026 | vorinostat -0.026 | citarinostat -0.033 | silmitasertib 0.048 | [5] 0.02 | [6] -0.099

ATP5F1C (UniProt P36542)
inactive: [1] 0.004 | [2] -0.021 | [3] -0.005 | [4] -0.001 | entinostat -0.022 | vorinostat -0.037 | citarinostat 0.003 | silmitasertib -0.002 | [5] -0.027 | [6] -0.019

ATP5ME (UniProt P56385)
inactive: [1] 0.003 | [2] -0.007 | [3] 0.057 | [4] -0.04 | entinostat 0.026 | vorinostat -0.027 | citarinostat -0.007 | silmitasertib -0.008 | [5] -0.037 | [6] -0.039

ARL2 (UniProt P36404)
inactive: [1] -0.003 | [2] -0.031 | [3] -0.075 | [4] 0.028 | entinostat -0.014 | vorinostat 0.031 | citarinostat 0.054 | silmitasertib -0.017 | [5] -0.032 | [6] -0.03

ATP6AP2 (UniProt O75787)
inactive: [1] -0.017 | [2] -0.007 | [3] -0.084 | [4] 0.009 | entinostat 0.023 | vorinostat -0.017 | citarinostat 0.009 | silmitasertib 0.047 | [5] 0.043 | [6] -0.05

ATP6V1C1 (UniProt P21283)
inactive: [1] -0.015 | [2] -0.135 | [3] -0.173 | [4] -0.09 | entinostat 0.062 | vorinostat 0.039 | citarinostat 0.008 | silmitasertib 0.03 | [5] 0.025 | [6] -0.103

ASRGL1 (UniProt Q7L266)
inactive: [1] 0.061 | [2] -0.031 | [3] 0.008 | [4] -0.003 | entinostat -0.048 | vorinostat 0.01 | citarinostat 0.074 | silmitasertib 0 | [5] 0.008 | [6] -0.039

ATP2B1 isoform 1 (UniProt P20020)
inactive: [1] -0.084 | [2] 0.058 | [3] 0.086 | [4] 0.02 | entinostat -0.052 | vorinostat -0.031 | citarinostat 0.021 | silmitasertib 0.008 | [5] -0.063 | [6] -0.013

ARPC4 isoform 3 (UniProt P59998)
inactive: [1] 0.005 | [2] 0.003 | [3] -0.027 | [4] -0.051 | entinostat -0.002 | vorinostat -0.042 | citarinostat -0.002 | silmitasertib 0.039 | [5] -0.013 | [6] -0.052

ATG5 (UniProt Q9H1Y0)
inactive: [1] 0.004 | [2] -0.003 | [3] -0.046 | [4] -0.046 | entinostat 0.015 | vorinostat 0.066 | citarinostat 0.024 | silmitasertib -0.006 | [5] -0.002 | [6] -0.054

ARMC1 (UniProt Q9NVT9)
inactive: [1] 0.017 | [2] -0.073 | [3] -0.144 | [4] -0.033 | entinostat 0.038 | vorinostat 0.055 | citarinostat 0.101 | silmitasertib 0.033 | [5] -0.062 | [6] 0.005

ATP6V1G1 (UniProt O75348)
inactive: [1] -0.03 | [2] -0.075 | [3] -0.111 | [4] -0.069 | entinostat -0.045 | vorinostat -0.056 | citarinostat -0.041 | silmitasertib -0.037 | [5] -0.091 | [6] -0.018

ARPC5 (UniProt O15511)
inactive: [1] 0.026 | [2] 0.01 | [3] 0.025 | [4] 0.001 | entinostat -0.054 | vorinostat -0.06 | citarinostat 0.043 | silmitasertib 0.037 | [5] 0 | [6] 0.007

ATP5F1A (UniProt P25705)
inactive: [1] 0.01 | [2] -0.01 | [3] 0.056 | [4] 0.016 | entinostat -0.033 | vorinostat -0.028 | citarinostat 0.018 | silmitasertib -0.007 | [5] 0.005 | [6] -0.014

ARSB (UniProt P15848)
inactive: [1] 0.038 | [2] 0.034 | [3] -0.087 | [4] -0.004 | entinostat -0.041 | vorinostat -0.008 | citarinostat 0.081 | silmitasertib -0.008 | [5] -0.005 | [6] -0.005

ARL8A (UniProt Q96BM9)
inactive: [1] -0.012 | [2] -0.093 | [3] 0.04 | [4] 0 | entinostat 0.087 | vorinostat -0.008 | citarinostat 0.063 | silmitasertib -0.082 | [5] -0.098 | [6] -0.03

Reference: the supplement of paper PMC10849652
